Data on two substances can be found in article PMC3887101.

The chains behind the UniProt entries cited, without tags or fusion partners.
UniProt P13445: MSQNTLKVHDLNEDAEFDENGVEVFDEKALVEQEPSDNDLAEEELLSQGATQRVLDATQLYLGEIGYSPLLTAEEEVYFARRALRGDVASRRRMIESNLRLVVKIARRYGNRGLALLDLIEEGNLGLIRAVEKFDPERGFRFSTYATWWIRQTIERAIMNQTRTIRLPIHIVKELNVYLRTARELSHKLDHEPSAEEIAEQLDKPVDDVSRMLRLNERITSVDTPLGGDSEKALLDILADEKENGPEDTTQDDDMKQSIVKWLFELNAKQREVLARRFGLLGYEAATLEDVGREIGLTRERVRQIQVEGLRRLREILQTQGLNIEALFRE
UniProt P0A7Z4: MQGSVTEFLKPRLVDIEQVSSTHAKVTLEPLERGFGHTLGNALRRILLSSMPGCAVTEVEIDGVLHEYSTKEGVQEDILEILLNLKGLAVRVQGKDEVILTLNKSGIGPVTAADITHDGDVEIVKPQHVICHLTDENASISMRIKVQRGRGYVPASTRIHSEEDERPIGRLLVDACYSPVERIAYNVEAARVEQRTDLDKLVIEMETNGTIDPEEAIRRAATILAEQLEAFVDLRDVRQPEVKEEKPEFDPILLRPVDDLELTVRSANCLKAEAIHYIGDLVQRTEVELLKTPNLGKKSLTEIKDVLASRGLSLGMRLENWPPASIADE

These are yes or no findings as the source states them, for the method shown. In cells and extracts the contact can be indirect. Some binding calls cover weakened binding; strength is not graded here. Sequences can lack the tags named with a protein.

The target in the assay is T1, His-tagged nitrite-sensitive repressor NsrR (UniProt P0AF63).
T1 sequence: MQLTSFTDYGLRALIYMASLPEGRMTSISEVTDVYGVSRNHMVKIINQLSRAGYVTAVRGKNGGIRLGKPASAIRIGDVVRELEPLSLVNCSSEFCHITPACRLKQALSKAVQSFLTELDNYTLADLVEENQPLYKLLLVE
As to the kind of experiment: pull-down.

For the substance “HA-tagged RNA polymerase subunit sigma 38 (RpoS) (from UniProt P13445 1-330)”, the binding result was “binds”.

“HA-tagged RNA polymerase subunit alpha (RpoA) (from UniProt P0A7Z4 1-329)”: the binding entry is “binds”.
